Assay results taken from PubChem BioAssay AID540276 (National Center for Advancing Translational Sciences (NCATS), 2011).
Screen size: about 300,000 compounds; about 5,400 (1.8%) were called active. This list was built around the results that the source calls inconclusive (neither active nor inactive); the mix of calls is not that of the screen. Calls come from the whole dose curve; tested in HEK293 cells. Potencies beside an inconclusive call are fits to weak or partial responses and may not hold up.

Assay: qHTS for inhibitors of binding or entry into cells for Marburg Virus
Conditions: Marburg virus pseudotyped entry inhibition, cell reporter; activity change, negative = inhibition: at 37.8 µM (top of the series) unless noted
% is set by controls: 0 for no effect and ±100 for the full control effect; potency is the fitted concentration of half-maximal effect.

Row | SMILES | activity change, negative = inhibition | Potency
1 | COC(=O)c1sccc1NC(=O)c1cc(OC)cc(OC)c1 | inactive: 0% | –
2 | CCCc1ccc(C2=Nn3c(nnc3C(C)C)SC2)cc1 | – | inconclusive: 35.5 µM [inhibitor, single point]
3 | CCc1ccccc1OCC(=O)Nc1ccc2c(c1)OCCO2 | – | inconclusive: 31.6 µM [activator, single point]
4 | Oc1c(Cl)cc(Cl)cc1C1=NNC(c2ccc(Cl)cc2)C1 (stereo unspecified) | – | inconclusive: 25.1 µM [inhibitor, single point]
5 | CCOC(=O)Cn1nnc(-c2ccc(OCC(C)C)cc2)n1 | inactive: 2.92% | –
6 | COc1ccc(S(=O)(=O)N2CCC3(CC2)OCCN3S(=O)(=O)c2cccs2)cc1OC | inactive: 15.4% | –
7 | CN(C)C=Nc1ccc2nn(-c3ccccc3)nc2c1 | inconclusive: 30.1% [activator] | –
8 | Cc1ccc(C(=O)Nc2ccc3c(c2)nc(CCNC(=O)c2ccco2)n3C)cc1 | – | inconclusive: 12.6 µM [activator, partial curve, poor fit]
9 | CCCc1c(C)c2ccccc2[nH]c1=O | – | inconclusive: 3.55 µM [inhibitor, single point]
10 | Cc1cc(S(=O)(=O)Nc2cc3c(cc2NCc2ccccc2)n(C)c(=O)n3C)ccc1F | inactive: 4.14% [at 46.1 µM] | –
11 | COC(=O)C1=C(C)N(Cc2ccco2)C(=O)NC1c1ccco1 (stereo unspecified) | inactive: 0.254% [at 14.2 µM] | –
12 | CC1C(OC(=O)CCC(=O)NC(C)(C)CO)O[C@H]2OC3(C)CC[C@H]4[C@H](C)CCC1C24OO3 (stereo partly specified) | – | inconclusive: 5.62 µM [inhibitor, full curve, poor fit]
13 | COCCC1CCCCN1C(=O)c1cc(COc2ccc(C)nc2)on1 (stereo unspecified) | – | inconclusive: 0.891 µM [inhibitor, full curve, poor fit]
14 | O=C(NCC(=O)N(c1ccc2c(c1)OCCO2)C(C(=O)NC1CCCC1)c1ccco1)c1ccco1 (stereo unspecified) | inactive: 18.9% | –
15 | O=C(CSc1nnc(-c2ccc(F)cc2)o1)Nc1ccc(S(=O)(=O)N2CCCC2)cc1 | – | inactive
16 | CC1C(=O)N2CCCc3cc(NC(=O)C(=O)NCCc4c[nH]c5ccccc45)cc1c32 (stereo unspecified) | – | inconclusive: 35.5 µM [inhibitor, single point]
17 | CCN(c1ccccc1)S(=O)(=O)c1ccc(Cl)c(NC(=O)COC(=O)C2CC2C)c1 (stereo unspecified) | inactive: 14.3% [at 46.1 µM] | –
18 | O=C(NCc1cccnc1)c1noc2c1CCCC2 | inactive: 6.96% | –
19 | Cc1ccc2nc(NC(=O)COC(=O)c3ccccn3)sc2c1 | inactive: 9.32% [at 46.1 µM] | –
20 | Cc1occc1-c1nnc(SCC(=O)NC2CCCCC2C)o1 (stereo unspecified) | inactive: 0% | –
21 | Cc1ccc(OCC(=O)Nc2sc3c(c2C#N)CCC3)cc1C | – | inconclusive: 32.6 µM [inhibitor, single point]
22 | CC(C)(C)c1ccc(-c2cn(-c3ccc(Br)cc3)c3[n+]2CCCS3)cc1 | – | inconclusive: 5.62 µM [inhibitor, full curve, poor fit]
23 | CC1COc2ccccc2N1S(=O)(=O)c1cc(Cl)ccc1Cl (stereo unspecified) | – | inconclusive: 2 µM [inhibitor, full curve, poor fit]

Row | SMILES | activity change, negative = inhibition | Potency
24 | Cc1cccc(N(C(=O)c2csnn2)C(C(=O)NC2CCCCC2)c2ccccn2)c1C (stereo unspecified) | inactive: 8.5% [at 46.1 µM] | –
25 | FC(F)(F)c1cccc(NC(=S)NCC(c2cccnc2)N2CCOCC2)c1 (stereo unspecified) | – | inconclusive: 1.12 µM [activator, partial curve]
26 | COc1ccc(C2(c3ccc(OC)cc3)NC(=O)N(CC(=O)N(C)c3ccccc3)C2=O)cc1 | inactive: -24.1% [at 46.1 µM] | –
27 | CCn1c(C)cc(=S)c2ccccc21 | inactive: 20.2% | –
28 | COc1ccc(-c2ccc(-c3nnn(CC(=O)N4CCOCC4)n3)cc2)cc1 | inactive: 22.1% | –
29 | CCOC(=O)C1=C(CS(=O)(=O)c2ccc(C(C)(C)C)cc2)NC(=O)NC1c1cccc(OC)c1 (stereo unspecified) | – | inconclusive: 35.5 µM [inhibitor, single point]
30 | CCc1nnc(NC(=O)CSc2nnc(CNc3ccc(F)cc3)n2C2CCCCC2)s1 | – | inactive
31 | Cc1cc(C)c(S(=O)(=O)Nc2ccc(O)cc2)cc1C | – | inconclusive: 3.66 µM [inhibitor, partial curve, poor fit]
32 | Cc1c(C)c2ccc(OCC(=O)NC3CCN(Cc4ccccc4)CC3)cc2oc1=O | inactive: -38.4% [at 46.1 µM] | –
33 | CCNC(=S)N/N=C/c1ccc(OCCOc2ccccc2C)cc1 | – | inconclusive: 29.1 µM [inhibitor, single point]
34 | CC(=O)Nc1ccc(Nc2ncnc3c2cnn3-c2ccc(C)cc2C)cc1 | – | inconclusive: 2.06 µM [inhibitor, full curve]
35 | O=C(O)c1ccc(C(=O)c2cc([N+](=O)[O-])cc([N+](=O)[O-])c2)cc1 | inactive: -9.58% [at 46.1 µM] | –
36 | Cc1sc(N/N=C/c2cccnc2)nc1-c1ccccc1 | – | inconclusive: 9.2 µM [inhibitor, partial curve]
37 | N/C(=N\OC(=O)c1ccccc1)C(Cc1ccccc1)C(=O)NOC(=O)c1ccccc1 (stereo unspecified) | – | inconclusive: 35.5 µM [inhibitor, single point]
38 | CCN(CC(=O)Nc1ccccc1C(F)(F)F)C(=O)c1ccccc1Cc1ccccc1 | – | inconclusive: 7.08 µM [inhibitor, partial curve]
39 | O=C(N/N=C/c1cccc(O)c1)C(=O)N1CCCCCC1 | – | inconclusive: 6.31 µM [activator, full curve, poor fit]
40 | O=C(Nc1ccc2c(c1)OCO2)C1CC(c2ccccc2O)=NO1 (stereo unspecified) | – | inconclusive: 28.2 µM [activator, single point]
41 | COc1cc(/C=N/NS(=O)(=O)c2ccc(C)c([N+](=O)[O-])c2)cc([N+](=O)[O-])c1O | inactive: 13.4% [at 46.1 µM] | –
42 | C=CCn1c(CCNC(=O)c2cccs2)nnc1SCC(=O)c1ccc(Br)cc1 | – | inconclusive: 25.9 µM [activator, single point]
43 | CN(c1ccccc1)S(=O)(=O)c1ccc(Cl)c(C(=O)OCC(=O)NCc2ccco2)c1 | – | inconclusive: 4.47 µM [activator, single point]
44 | CCCCNC(=O)CNC(=S)N(CCCN1CCOCC1)Cc1cccs1 | – | inconclusive: 10 µM [inhibitor, partial curve]
45 | CCN(CC)S(=O)(=O)c1ccc(NCCCn2ccnc2)c([N+](=O)[O-])c1 | – | inconclusive: 0.794 µM [inhibitor, partial curve, poor fit]
46 | Cc1[nH]c2ccccc2c1/C=C/C(=O)c1ccncc1 | – | inconclusive: 7.08 µM [inhibitor, partial curve, poor fit]
